From PMC6434776
Construct, isoform or probe ends are uncertain for at least one entry.

System: bZIP60(s), spliced form (Nicotiana attenuata)
Test: EMSA
Settings: 300 ng protein, 30 ng probe, Chemiluminescent EMSA kit (Beyotime), manufacturer's protocol, 30 ng biotin probe, pH and temperature not stated, recombinant protein, protein details: His (pET28a), label: biotin

Sequence: TAAGGGGCGTGAAAAGTTCAAAGT (double strand) [FBP2]
- binding result (excess unlabeled FBP2 competes): binds

Sequence: TTTTGCACTCAGTCAGGCTAAAATCG (double strand) [FBP3]
- binding result (excess unlabeled FBP3 competes): binds

Sequence: AATTTTTTTTACGTAAATGATTTTCTTTTACCTGAAAATTTCCCTTGA (double strand) [FBP1]
- binding result (excess unlabeled FBP1 competes): binds
